As a reminder, the fraction unbound is the share of the substance not bound to proteins or other matrix. Higher therefore signals weak binding.

The nature of this series: Unbound drug fraction in cell culture medium by rapid equilibrium dialysis. It counts as in vitro ADME. The note with it: bovine, bovine serum albumin-containing cell culture medium. (In equilibrium dialysis free small molecules cross a membrane that holds back macromolecules.)

As to `CCN(CC)CC(=O)Nc1c(C)cccc1C` [Lidocaine, lidocaine], the fraction unbound came out at 0.88.
